All values are in %. The record does not define 0% and 100%; most values in the screen are far below 50% and negative numbers occur (in some assays of this library far below -100). Compounds were drawn at random from those tested, without regard to their results. A dash means the value is not listed here; it may have been measured.

Amino acid sequences for entries named in this document (tags omitted).
UniProt E9BF75, entry or part of it: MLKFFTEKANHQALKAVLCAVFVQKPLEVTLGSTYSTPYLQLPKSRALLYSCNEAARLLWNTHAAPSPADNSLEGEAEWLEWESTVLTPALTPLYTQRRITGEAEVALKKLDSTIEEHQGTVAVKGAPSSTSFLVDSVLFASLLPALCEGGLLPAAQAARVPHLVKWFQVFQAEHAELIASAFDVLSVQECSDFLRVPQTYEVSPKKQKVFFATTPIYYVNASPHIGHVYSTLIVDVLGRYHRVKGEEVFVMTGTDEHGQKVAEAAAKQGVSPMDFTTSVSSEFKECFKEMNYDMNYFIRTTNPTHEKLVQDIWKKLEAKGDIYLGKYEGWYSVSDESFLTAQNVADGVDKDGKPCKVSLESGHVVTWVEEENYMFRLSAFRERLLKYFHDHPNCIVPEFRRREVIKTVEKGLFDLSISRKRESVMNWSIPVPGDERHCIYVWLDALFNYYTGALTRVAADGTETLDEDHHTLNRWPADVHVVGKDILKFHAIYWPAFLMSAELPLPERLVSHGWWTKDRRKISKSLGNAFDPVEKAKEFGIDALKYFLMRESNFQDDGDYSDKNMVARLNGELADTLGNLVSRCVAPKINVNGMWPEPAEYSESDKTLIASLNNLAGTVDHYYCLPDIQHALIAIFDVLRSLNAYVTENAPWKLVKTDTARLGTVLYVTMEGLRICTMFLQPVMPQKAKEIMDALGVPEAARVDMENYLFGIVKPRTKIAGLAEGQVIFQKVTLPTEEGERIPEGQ

Mtb heat-shock: 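Assay on Mycobacterium tuberculosis, filed only as a heat shock assay from Cornell; the read-out is not stated. The concentration is filed as 10 mM, unlikely as a test dose, so the dose is not known. The record gives no direction; compounds that gave an IC50 in retests scored well above the rest, so higher reads as stronger inhibition. Size under these conditions: about 69,000 compounds, about 930 of them at 50% or above in at least one test.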
Mtb growth Cornell: 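Whole-cell assay for inhibitors of Mycobacterium tuberculosis growth, labelled Cornell in the record; the read-out is not stated. The concentration is filed as 10 mM, unlikely as a test dose, so the dose is not known. The record gives no direction; compounds strong in two other growth screens of this library score well above the rest, so higher reads as stronger inhibition. About 53,000 compounds were tested under these conditions; 1.7% (about 900) showed 50% or more at least once.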
LdMetRS: 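Methionyl-tRNA synthetase (putative), Leishmania donovani (UniProt E9BF75). Primary screen of methionyl-tRNA synthetase; the read-out is not stated. The test concentration is not given. Values are per cent inhibition. About 68,000 compounds were tested under these conditions; 0.035% (about 24) showed 50% or more at least once.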

structure | Mtb heat-shock | Mtb growth Cornell | LdMetRS
CC(C)CCc1nc(CNCC2CN(C)CCO2)cs1 (stereo not shown) | -22.73 | - | 5.682
O=C(O)C(F)(F)F.[H][C@@]12CCN(c3ccc(C)nn3)[C@@]1([H])CCN2C(=O)Cc1cccs1 | 1.861 | 5.06 | -
[H][C@@]12CS(=O)(=O)C[C@]1([H])N(C(=O)c1cccc(C)n1)CCN2S(C)(=O)=O | 9.737 | 7.819 | -
Cc1nn(CC(=O)N2CCCCC2Cn2cccn2)c(C)c1Cl (stereo not shown) | 15.59 | 15.01 | 14.29
O=C(N[C@@H]1CN(Cc2ccc(F)cc2)C[C@H]1O)c1cscn1 | -20.49 | - | 1.647
O=C1N(c2ccc(Cl)cc2)Cc2n[nH]c(=O)n21 | 14.96 | -12.48 | 11.11
O=C(NCC(F)F)c1ccc(S(=O)(=O)NCCc2c[nH]cn2)cc1 | 17.72 | -22.99 | 6.138
CCN(CC1CCOC1)C(=O)CSCC(=O)Nc1ccc(C)cc1 (stereo not shown) | 0.8218 | - | 11.72
CCSc1cc(C(=O)NCCc2nnc(-c3ccco3)[nH]2)ccn1 | 16.82 | -11.72 | 9.019
CSc1cccc(CN(C)C(=O)C2CC(=O)N(CCN(C)C)C2)c1 (stereo not shown) | -21.12 | -0.5973 | 15.61
CCCc1nc(CNCC2CCCN2c2cccnn2)cs1 (stereo not shown) | 2.805 | - | 18.03
Cc1ccc(C)c(OC(C)C(=O)NCc2cccnc2)c1 (stereo not shown) | -4.055 | - | -
CC(C)C1CCCN1CCCc1nc(-c2cccs2)no1 (stereo not shown) | 18.44 | - | 16.26
CCN(CC)S(=O)(=O)NCc1ccc(-c2ccc(C(N)=O)c(C)n2)cc1 | 20.07 | 0.7243 | 9.841
Cc1ccc(CC2CCCN(S(C)(=O)=O)C2)nc1 (stereo not shown) | -12.53 | - | 7.765
CCN(CC)S(=O)(=O)N1CCCN(CC(=O)NC(C)C)CC1 | -5.085 | 6.508 | 1.873
Cc1cc(C)n(C2CN(Cc3nc4cc(Cl)ccc4n3C)C2)n1 | 97.92 | -28.71 | 9.322
CC(=O)N1CCC(NC(=O)N(C)Cc2c(C)noc2C)CC1 | -0.3841 | - | 21.2
Cc1nnc(SCCCNC(=O)Nc2ccc3c(c2)OCO3)s1 | -0.3183 | - | 2.484
Cc1nc2ccc(C(=O)N3CCN(CCO)[C@@H]4CS(=O)(=O)C[C@@H]43)cc2o1 | - | - | 16.17
O=C(c1ccc[nH]1)N1C[C@H](OCc2ccccn2)[C@H]2COC[C@H]21 | - | - | 8.629
CC(C)c1nc(C2CCCN(C(=O)c3cccc4c3OCO4)C2)no1 (stereo not shown) | 2.973 | -11.64 | 16.91
CC(C)N1CCC(CC(=O)NC[C@H]2CCc3ccccc3O2)CC1 | -13.31 | - | 9.938
Cc1cc(C(=O)N2CCn3cc(CN4CCOCC4)nc3C2)no1 | - | - | 11.94
CCN1CCC2(CC1)C(=O)Nc1ccc(C(=O)NC)cc12 | - | - | 16.24
O=C(Nc1ccccc1OCCc1ccccn1)N1CCOCC(O)C1 (stereo not shown) | 1.771 | -12.55 | 9.907
Cc1ccc2c(c1)nc1n2[C@@H](CNC(=O)c2cncnc2)COC1 | -38.47 | -1.956 | 12.54
COC(=O)c1ccc(OC)c(CN2CCN(CC(C)C)C(=O)C2C)c1 (stereo not shown) | 2.02 | -0.4205 | 11.11
Cn1cc(CN(CC2(O)CNCCOC2)C2CCCCC2)cn1 (stereo not shown) | -15.06 | 26.12 | 16.51
CN(CCO)Cc1nnc(C2CCN(C(=O)c3cccn3C)CC2)n1C | -15.83 | -14.12 | 16.76
Cc1nc(CN2CCCn3c(nc(Cn4cncn4)cc3=O)C2)cs1.O=C(O)C(F)(F)F | -20.21 | - | -
CNc1oc(-c2ccc(OC)c(S(=O)(=O)N3CCCCC3)c2)nc1C#N | 8.604 | - | 12.86
CC(C(=O)NC1CC1)S(=O)(=O)c1cc2c(cc1Cl)OCCO2 (stereo not shown) | -14.89 | -1.379 | 24.3
[H][C@@]12CCN(C(=O)C3CC3)[C@]1([H])C(=O)N(c1ccccc1)C(=O)N2 | -13.61 | - | -
Cc1ccc(C)c(NS(=O)(=O)c2cc3c(c(C(=O)O)c2)OCCO3)c1 | -25.92 | 8.167 | 13.69
CNS(=O)(=O)c1cccc(CNc2ccc(C#N)cn2)c1 | 14.68 | 5.132 | 11.94
N#Cc1ncn(CC(=O)Cc2c(F)cccc2Cl)n1 | 85.52 | 41.98 | 6.162
Cc1noc(C)c1CN1C[C@@H]2COC[C@@H](C(=O)N3CCCO3)[C@@H]2C1 | - | - | 0
C=C(C)COc1cccc(CN(C)C(C)c2ccncn2)c1 (stereo not shown) | -20.46 | 34.32 | 10.07
[H][C@]12CCN(c3cnccn3)C[C@]1(COC)CC[C@@H](N1CCOCC1)C2 | -22.11 | - | -
O=C(O)C(F)(F)F.O=C(O)C(F)(F)F.O=C(O)C(F)(F)F.[H][C@@]12COC[C@]1([H])[C@H](N(C)C)CN2Cc1cnn(C)c1 | -14.51 | -9.66 | -
Cc1ncsc1C(=O)N1CCN(Cc2ccccc2)CC1C (stereo not shown) | -3.774 | 7.106 | 14.34
[H][C@]12CCN(C(=O)c3ccccc3)C[C@@]1([H])OCCN(C(C)=O)C2 | -33.76 | 14.67 | -
COc1ccc(Cl)cc1NCC(=O)NCc1cccnc1OC | -14.44 | 21.39 | 26.67
Cc1noc(C)c1CN1CCOC2(CCCN(c3nncs3)C2)C1 (stereo not shown) | - | - | 14.07

For reference, 3 entries once more:

Result for [H][C@@]12CCN(C(=O)C3CC3)[C@]1([H])C(=O)N(c1ccccc1)C(=O)N2 was Mtb heat-shock: -13.61%.
Result for CC(=O)N1CCC(NC(=O)N(C)Cc2c(C)noc2C)CC1 was Mtb heat-shock: -0.3841%; LdMetRS: 21.2%.
Result for CSc1cccc(CN(C)C(=O)C2CC(=O)N(CCN(C)C)C2)c1 (stereo not shown) was Mtb heat-shock: -21.12%; Mtb growth Cornell: -0.5973%; LdMetRS: 15.61%.

Measurements from “University of Dundee, Small-Polar-MMV Screening Library” (2021), ChEMBL document CHEMBL3988442.